# Assay results as given in PubChem BioAssay AID328 (DTP/NCI, 2004).
# The list shows only some results of the screen, not a fair sample: it gathers tests that were run many times, whatever their T/C, doses with no T/C, and many T/C values between a quarter and a half above the control. Further doses and runs are listed elsewhere. T/C: endpoint of the treated group in % of that of the vehicle group. Some entries give survivors of the animals treated and no T/C: the source holds a T/C of zero for them, seemingly a mark for toxic or unscored doses. Some doses without a T/C left all or most animals alive at the check, yet need not have been tolerated: the source hardly ever lists a survival T/C far under the control, and the zero likely stands for such cases as well. Survivors were counted at the toxicity check, usually on the fifth day, unless a day is given; later deaths do not show. Schedules are NCI's codes, taken here to give the interval after Q, in days (D) or hours (H), and the number of doses after X. Some doses were run more than once; their values stand side by side, smallest first. For survival time, this PubChem deposit counts one and a half times the control or more as active, and values a quarter to a half above the control carry no call in these data; other NCI protocols may use other cut-offs. Some T/C values carry the count of animals alive at the toxicity check (mostly the fifth day); where none is given, no animal had died by that day.
# System: BDF1 mice, P388 leukemia ip, median survival T/C
# Assay: NCI In Vivo Anticancer Drug Screen. Data for tumor model P388 Leukemia (intraperitoneal) in B6D2F1 (BDF1) mice
# Conditions: T/C endpoint: median survival time, higher T/C = longer survival
# In short: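 Vehicle-dosed animals serve as the reference; survival of compound-dosed, tumour-implanted mice is divided by it.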
# [1] = dose: 100.0 mg/kg/injection, schedule: Q01DX009 (ip), vehicle: saline with Tween-80
# [2] = dose: 200.0 mg/kg/injection, schedule: Q01DX009 (ip), vehicle: saline with Tween-80
# [3] = dose: 400.0 mg/kg/injection, schedule: Q01DX009 (ip), vehicle: saline with Tween-80
# [4] = dose: 2.0 mg/kg/injection, schedule: Q01DX009 (ip), vehicle: saline with Tween-80
# [5] = dose: 5.0 mg/kg/injection, schedule: Q01DX009 (ip), vehicle: gum acacia
smiles,measurement,setting,value
CCO/C=C1\SC(=S)N(c2ccco2)C1=O,T/C,"dose: 14.6 mg/kg/injection, schedule: Q01DX009 (ip), vehicle: saline with Tween-80",127 % of control
same,T/C,"dose: 25.0 mg/kg/injection, schedule: Q01DX009 (ip), vehicle: saline with Tween-80",136 % of control
same,T/C,"dose: 30.0 mg/kg/injection, schedule: Q01DX009 (ip), vehicle: saline with Tween-80",130 % of control
same,T/C,"dose: 33.0 mg/kg/injection, schedule: Q01DX009 (ip), vehicle: saline with Tween-80",127 % of control
same,T/C,"dose: 44.0 mg/kg/injection, schedule: Q01DX009 (ip), vehicle: saline with Tween-80",130 and 133 % of control
same,T/C,"dose: 50.0 mg/kg/injection, schedule: Q01DX009 (ip), vehicle: saline with Tween-80",136 % of control
same,T/C,"dose: 66.0 mg/kg/injection, schedule: Q01DX009 (ip), vehicle: saline with Tween-80",126 and 135 % of control
same,T/C,[1],"116, 136, 140 % of control"
same,survivor count,[1],3 of 6
same,survivor count,"dose: 150.0 mg/kg/injection, schedule: Q01DX009 (ip), vehicle: saline with Tween-80",2 of 6 and 6 of 6
same,survivor count,"dose: 150.0 mg/kg/injection, schedule: Q01DX009 (ip), vehicle: saline",5 of 6
same,survivor count,[2],4 of 6
same,survivor count,[3],6 of 6
CN(C)C(=S)NN,survivor count,[4],6 of 6
same,survivor count,"dose: 6.25 mg/kg/injection, schedule: Q04DX003 (ip), vehicle: saline with Tween-80",6 of 6
same,survivor count,"dose: 12.5 mg/kg/injection, schedule: Q04DX003 (ip), vehicle: saline with Tween-80",0 of 6
CC(=O)n1ncc2ccc(N)cc21,survivor count,"dose: 400.0 mg/kg/injection, schedule: Q01DX009 (ip), vehicle: water",0 of 6
O=C1c2ccccc2C(=O)c2cc3c(cc21)CCCC3,survivor count,"dose: 200.0 mg/kg/injection, schedule: Q01DX009 (ip), vehicle: water",8 of 8
CC(C)[C@]12O[C@H]1[C@@H]1O[C@]13[C@]1(O[C@H]1C[C@H]1C4=C(C(=O)OC4)[C@@H](O)C[C@@]13C)[C@@H]2O,T/C,"dose: 0.13 mg/kg/injection, schedule: Q01DX009 (ip), vehicle: saline + alcohol",144 % of control
same,T/C,"dose: 0.25 mg/kg/injection, schedule: Q01DX009 (ip), vehicle: saline + alcohol",142 % of control [9 of 10 alive]
same,survivor count,"dose: 0.5 mg/kg/injection, schedule: Q01DX009 (ip), vehicle: saline + alcohol",2 of 10
same,survivor count,"dose: 1.0 mg/kg/injection, schedule: Q01DX009 (ip), vehicle: saline + alcohol",0 of 10
same,survivor count,"dose: 12.5 micrograms/kg/injection, schedule: Q01DX009 (ip), vehicle: saline + alcohol",10 of 10
same,survivor count,"dose: 25.0 micrograms/kg/injection, schedule: Q01DX009 (ip), vehicle: saline + alcohol",8 of 10
same,survivor count,"dose: 50.0 micrograms/kg/injection, schedule: Q01DX009 (ip), vehicle: saline + alcohol",10 of 10
same,T/C,"dose: 50.0 micrograms/kg/injection, schedule: Q01DX009 (ip), vehicle: saline",128 % of control
same,survivor count,"dose: 200.0 micrograms/kg/injection, schedule: Q01DX009 (ip), vehicle: saline + alcohol",10 of 10
same,survivor count,"dose: 400.0 micrograms/kg/injection, schedule: Q01DX009 (ip), vehicle: saline + alcohol",8 of 10
CC([OH2+])CNCCN.CC([OH2+])CNCCN.O=[N+]([O-])[O-].[Ni+2] (centres undefined),survivor count,"dose: 50.0 mg/kg/injection, schedule: Q01DX009 (ip), vehicle: saline",6 of 6
same,survivor count,"dose: 100.0 mg/kg/injection, schedule: Q01DX009 (ip), vehicle: saline",1 of 6
same,survivor count,"dose: 200.0 mg/kg/injection, schedule: Q01DX009 (ip), vehicle: saline",0 of 6
NC(Cc1ccc(OC2CCCC2)c(N(CCCl)CCCl)c1)C(=O)O (centres undefined),T/C,"dose: 0.25 mg/kg/injection, schedule: Q04DX003 (ip), vehicle: Klucel (hydroxypropylcellulose) (HPC)",136 % of control
same,survivor count,"dose: 10.0 mg/kg/injection, schedule: Q04DX003 (ip), vehicle: saline",6 of 6
same,survivor count,"dose: 30.0 mg/kg/injection, schedule: Q04DX003 (ip), vehicle: other",3 of 6
same,survivor count,"dose: 45.0 mg/kg/injection, schedule: Q04DX003 (ip), vehicle: other",4 of 6
C/C(=N\Nc1ccc([N+](=O)[O-])cc1[N+](=O)[O-])C(F)(F)F,T/C,[1],145 % of control
Cc1ccc(NC(=O)c2ccccc2)cc1[As]=[As]c1cc(NC(=O)c2ccccc2)ccc1C (centres undefined),T/C,"dose: 1.25 mg/kg/injection, schedule: Q01DX009 (ip), vehicle: gum acacia",125 % of control
same,T/C,"dose: 2.5 mg/kg/injection, schedule: Q01DX009 (ip), vehicle: gum acacia",137 % of control
same,T/C,"dose: 2.5 mg/kg/injection, schedule: Q04DX003 (ip), vehicle: gum acacia",140 % of control
same,T/C,"dose: 3.3 mg/kg/injection, schedule: Q04DX003 (ip), vehicle: gum acacia",140 % of control
same,T/C,"dose: 3.35 mg/kg/injection, schedule: Q01DX009 (ip), vehicle: gum acacia",132 % of control
same,T/C,[5],139 and 140 % of control
same,survivor count,[5],4 of 6
same,T/C,"dose: 5.0 mg/kg/injection, schedule: Q04DX003 (ip), vehicle: gum acacia","136, 140, 145 % of control"
same,survivor count,"dose: 7.5 mg/kg/injection, schedule: Q01DX009 (ip), vehicle: gum acacia",0 of 6
same,survivor count,"dose: 7.5 mg/kg/injection, schedule: Q04DX003 (ip), vehicle: Klucel (hydroxypropylcellulose) (HPC)",4 of 6
same,survivor count,"dose: 7.5 mg/kg/injection, schedule: Q04DX003 (ip), vehicle: gum acacia",0 of 6
same,survivor count,"dose: 10.0 mg/kg/injection, schedule: Q01DX009 (ip), vehicle: gum acacia",6 of 6
same,survivor count,"dose: 10.0 mg/kg/injection, schedule: Q04DX003 (ip), vehicle: gum acacia",0 of 6
same,survivor count,"dose: 20.0 mg/kg/injection, schedule: Q04DX003 (ip), vehicle: gum acacia",0 of 6
CC(=O)OCCC/C(=C/c1ccc(/C=C(\CCCOC(C)=O)[N+](=O)[O-])cc1)[N+](=O)[O-],survivor count,"dose: 400.0 mg/kg/injection, schedule: Q04DX003 (ip), vehicle: Klucel (hydroxypropylcellulose) (HPC)",3 of 6
CC(=O)O[C@H]1[C@H]2O[C@]23[C@@H]2CC[C@@H]4C[C@@H](O)CC[C@]4(C)[C@H]2CC[C@]3(C)[C@H]1c1ccc(=O)oc1,survivor count,"dose: 15.0 mg/kg/injection, schedule: Q01DX009 (ip), vehicle: Klucel (hydroxypropylcellulose) (HPC)",6 of 6
same,survivor count,"dose: 30.0 mg/kg/injection, schedule: Q01DX009 (ip), vehicle: Klucel (hydroxypropylcellulose) (HPC)",5 of 6
same,survivor count,"dose: 40.0 mg/kg/injection, schedule: Q01DX010 (ip), vehicle: carboxymethylcellulose (CMC)",0 of 6
CCOC(=O)c1ccc(OP(=O)(N(C)C)N(C)C)cc1,survivor count,[1],0 of 6
same,survivor count,[2],0 of 6
[Cl][Hg][Cl].c1cnccn1,T/C,"dose: 0.12 mg/kg/injection, schedule: Q01DX009 (ip), vehicle: saline with Tween-80",127 % of control
same,survivor count,"dose: 1.0 mg/kg/injection, schedule: Q01DX009 (ip), vehicle: saline with Tween-80",6 of 6
same,survivor count,[4],6 of 6
same,survivor count,"dose: 8.0 mg/kg/injection, schedule: Q01DX009 (ip), vehicle: saline with Tween-80",5 of 6
same,T/C,"dose: 8.0 mg/kg/injection, schedule: Q04DX003 (ip), vehicle: saline with Tween-80",125 % of control [5 of 6 alive]
same,survivor count,"dose: 12.0 mg/kg/injection, schedule: Q04DX003 (ip), vehicle: saline with Tween-80",3 of 6
CCc1ccc(C(=O)C2CC2)cc1,T/C,[1],130 % of control
same,T/C,[2],135 % of control
same,T/C,[3],145 % of control [5 of 6 alive]
[NH-]CC([NH-])=O.[NH-]CC([NH-])=O.[Ni],survivor count,"dose: 20.0 mg/kg/injection, schedule: Q01DX009 (ip), vehicle: water",3 of 6
same,survivor count,"dose: 40.0 mg/kg/injection, schedule: Q01DX009 (ip), vehicle: water",0 of 6
same,survivor count,"dose: 50.0 mg/kg/injection, schedule: Q04DX003 (ip), vehicle: water",3 of 6
same,survivor count,"dose: 100.0 mg/kg/injection, schedule: Q04DX003 (ip), vehicle: water",0 of 6
